Laboratory results from PubChem BioAssay AID2685 (National Center for Advancing Translational Sciences (NCATS), 2010).
The other results are listed elsewhere or left out. Further columns of the screen follow, without active or inactive calls. Most of these compounds were active or inconclusive in the main read-out, so they are no random draw. Potencies come from curve fits of mixed quality, noted in brackets.

Assay: qHTS Assay for Lipid Storage Modulators in Drosophila S3 Cells;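 on cell number change: cells counted by Cell Tracker Red CMTPX staining in the red channel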
Conditions: BODIPY lipid droplet fluorescence, 18-24 h; for cell number change: measured here: cell count max response, cells fed with added oleic acid
Procedure, shortened: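 Drosophila S3 cells loaded with oleic acid (400 uM, as added) and compounds at several concentrations; lipid droplets imaged by 488-nm laser-scanning cytometry, 500–530 nm intensity and object ratio to cell channel. Percent activity normalized to 20 uM Triacsin C.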

[1] = measured here: cell number channel AC50, cells fed with added oleic acid
[2] = measured here: lipid fluorescence (Fed channel) AC50, cells fed with added oleic acid

| Compound | cell number change | AC50 [1] | AC50 [2] |
| --- | --- | --- | --- |
| CCc1cc(=O)oc2c(C)c(OCC(=O)NCCCN3CCCC3=O)ccc12 | 0.382% | 6.51 µM [falling, single point] |  |
| COCCn1cnc2c1c(=O)n(Cc1cc(C(C)=O)ccc1OC)c(=O)n2Cc1ccccc1 | 3.15% | 0.58 µM [rising, single point] | 29.1 µM [rising, single point] |
| O=C(Cn1nnc2ccccc2c1=O)N1CCOCC1 | 19.7% |  | 1.64 µM [rising, full curve, poor fit] |
| CC1(C)Cc2nc3sc4c(=O)[nH]cnc4c3cc2CS1 | -16.6% |  | 0.731 µM [falling, single point] |
| COc1ccc(Cl)cc1NC(=S)NCCSc1ccc(C)cc1 | -9.59% |  | 0.0058 µM [falling, full curve, poor fit] |
| CC(C)(C)OC(=O)N1CCC[C@H]1C(=O)O | 27.2% |  |  |
| COc1cc2ccccc2cc1C(=O)NNC(=O)c1ccccc1O | -11.9% |  |  |
| CC(C)OP(=O)(OC(C)C)/C(C=O)=N\Nc1ccc([N+](=O)[O-])cc1 | -21.5% | 1.03 µM [rising, full curve, poor fit] | 0.092 µM [falling, full curve, poor fit] |
| CCOc1cc(/C=N/O)cc(Br)c1OCC(=O)NCc1ccccc1 | -1.38% |  | 8.2 µM [rising, partial curve] |
| Cc1cc(C)nc(SCC(=O)Nc2ccc(N3CCOCC3)c(Cl)c2)n1 |  | 2.91 µM [rising, partial curve] | 2.91 µM [rising, partial curve] |
| CC(C)c1ccc(S(=O)(=O)N2CCN(CCC(=O)Nc3ccc(N(C)C)cc3)CC2)cc1 |  |  | 0.58 µM [falling, single point] |
| CC1COc2ccccc2N1S(=O)(=O)c1ccccc1 (stereo unspecified) | 34.4% |  | 18.4 µM [rising, partial curve, poor fit] |
| CC(C)CCN1CCNC(=O)C1CC(=O)N(C)CCCN1CCOCC1 (stereo unspecified) | -13.9% |  |  |
| COc1cc2nc(CN(C)Cc3ccc(C(C)(C)C)cc3)[nH]c(=O)c2cc1OC | 87.3% | 29.1 µM [rising, single point] | 6.51 µM [rising, single point] |
| CC(=O)c1ccc(N2CCN(S(=O)(=O)c3c(C)[nH]c(C)c3C(=O)N3CCCC3)CC2)cc1 | 11.1% |  |  |
| CCc1ccc(OCC(=O)NCCOc2ccccc2)cc1 | 36.9% | 20.6 µM [rising, single point] |  |
| CCOc1ccc(Br)cc1S(=O)(=O)N1CCCN(C)CC1 | 10.3% |  | 0.116 µM [falling, single point] |
| Cc1ccc(/C=N/NC(=O)C2(C)CC2(Br)Br)cc1 (stereo unspecified) | -12.2% |  | 32.6 µM [falling, single point] |
| N#C/C(=C\c1cccs1)C(=O)Nc1nccs1 | -12.6% |  |  |
| CCCCn1nnnc1NCc1cccnc1 |  | 6.51 µM [rising, single point] |  |
| COC(=O)c1ccc(OCC(O)CN2CCC(C)CC2)cc1 (stereo unspecified) | -49.2% | 4.61 µM [falling, full curve] | 16.4 µM [falling, partial curve] |

| Compound | cell number change | AC50 [1] | AC50 [2] |
| --- | --- | --- | --- |
| Cc1cccc(-n2c(O)c(C=Nc3cccc(O)c3)c3ccccc3c2=O)n1 |  | 0.092 µM [falling, full curve] | 0.146 µM [falling, full curve] |
| CC(C)(C)C#CC(CCc1ccccc1)OS(N)(=O)=O (stereo unspecified) | -9.06% |  | 0.58 µM [rising, single point] |
| CC1(C)OC(=O)C(=CNC(=O)c2c(F)cccc2F)C(=O)O1 | 37.2% | 32.6 µM [rising, single point] |  |
| CC(C)(C)c1ccc(-c2noc(CCC(=O)NCc3ccco3)n2)cc1 | -69% |  |  |
| CCCNC(=O)c1ccc(SCC(=O)N(CC)CC)c([N+](=O)[O-])c1 | 18.7% | 4.11 µM [rising, full curve, poor fit] | 4.11 µM [rising, full curve, poor fit] |
| CC(Oc1ccccc1)C(=O)N=Nc1c(O)[nH]c2ccc(Br)cc12 (stereo unspecified) | -0.135% |  |  |
| Cc1cccc(NC(=O)CCN2CC(C)CC(C)C2)c1 (stereo unspecified) | 9.07% |  | 6.51 µM [falling, partial curve, poor fit] |
| O=C(CN1C2=NCCN2c2ccccc21)c1ccc(Br)s1 | 19.9% |  | 2.06 µM [rising, partial curve, poor fit] |
| CCC(C)[C@@H](N)C(=O)N/N=C/c1ccc2ncccc2c1 (stereo partly specified) | -11.7% | 0.731 µM [falling, single point] |  |
| O=C(Nc1ccc(C(=O)O)cc1)/C(=C\C=C\c1ccccc1)NC(=O)c1ccccc1Cl | 11.9% |  | 0.58 µM [falling, single point] |
| O=[N+]([O-])c1ccc(O)c2ncccc12 | -16.9% |  | 16.4 µM [falling, single point] |
| COc1ccc(OC)c(CCNC(=O)Cn2sc3nc(C)cc(C)c3c2=O)c1 | -89.1% | 23.1 µM [falling, partial curve] | 8.2 µM [falling, partial curve] |
| COc1ccccc1NC(=O)c1cc(C(=O)O)ccc1C(=O)O | -4.48% |  |  |
| COc1ccc(Nc2cc(NCCCO)c([N+](=O)[O-])c3nonc23)cc1 | 114% | 29.1 µM [rising, single point] | 14.6 µM [rising, partial curve] |
| Cc1onc(-c2ccccc2)c1C(=O)Nc1nnc(CC(C)C)s1 | -0.901% |  |  |
| CCc1nc(SCC(=O)Nc2ccc(F)cc2F)c2c(=O)n(C)c(=O)n(C)c2n1 | -19.4% |  | 0.731 µM [falling, full curve] |
| CN(Cc1ccccc1)S(=O)(=O)c1ccc(N2CCOCC2)nc1 | -23% |  |  |
| CCN(CC)CCn1c2ccccc2c2nc3ccccc3nc21 | -19.4% |  | 6.51 µM [falling, single point] |
| CCCCCOC(=O)CC(C(=O)OCCCCC)N1CCCCC1 (stereo unspecified) | -41.2% | 11.6 µM [falling, partial curve] | 13 µM [falling, partial curve] |
| Cc1cc(-c2nn(-c3ccccc3F)cc2CN2CCN(c3ccccn3)CC2)c(C)s1 | 28.5% |  | 10.3 µM [rising, partial curve] |
| COC(=O)c1cccc(NC(=O)CCc2c(C)noc2C)c1 | 1.81% |  | 5.8 µM [falling, full curve, poor fit] |

A run of entries from further up, for reference:

| Compound | cell number change | AC50 [1] | AC50 [2] |
| --- | --- | --- | --- |
| O=C(Nc1ccc(C(=O)O)cc1)/C(=C\C=C\c1ccccc1)NC(=O)c1ccccc1Cl | 11.9% |  | 0.58 µM [falling, single point] |
| O=[N+]([O-])c1ccc(O)c2ncccc12 | -16.9% |  | 16.4 µM [falling, single point] |
| COc1ccc(OC)c(CCNC(=O)Cn2sc3nc(C)cc(C)c3c2=O)c1 | -89.1% | 23.1 µM [falling, partial curve] | 8.2 µM [falling, partial curve] |

Additional entries.

| Compound | cell number change | AC50 [1] | AC50 [2] |
| --- | --- | --- | --- |
| CCc1cccc(CC)c1-n1c(SCc2cc(=O)n3ccsc3n2)nnc1-c1cccnc1 | -7.73% |  | 18.4 µM [rising, single point] |
| c1ccc(CCN2CN(CCCN3CCOCC3)c3nc4ccccc4n3C2)cc1 |  |  | 0.164 µM [falling, full curve, poor fit] |
| COc1ccc(S(=O)(=O)NCc2ccc(C(=O)NCCCN3CCCC(C)C3)cc2)cc1 (stereo unspecified) |  |  | 29.1 µM [rising, single point] |
| COc1cccc(CNC(=O)CN2C(=O)COc3ccc(S(=O)(=O)N4CCCC4)cc32)c1 | -24.3% |  | 0.731 µM [falling, full curve] |
| O=C(O)CCn1cc(-c2ccc(F)cc2)nc1-c1ccncc1 | -6.34% |  | 1.16 µM [rising, full curve] |
| CCn1c(SCc2ccc(Cl)c(Cl)c2)nnc1C(C)NC(=O)c1ccc(OC)cc1 (stereo unspecified) | 11% |  | 29.1 µM [falling, single point] |
| O=C(CN1CCN(c2ccc(F)cc2)CC1)N1CCOCC1 | -0.2% |  | 1.64 µM [falling, partial curve, poor fit] |
| Cc1cccc(NC(=O)c2cc([N+](=O)[O-])ccc2NC2CCCCC2)c1 | -4.98% |  | 1.3 µM [falling, full curve, poor fit] |
| COc1cc(OC)c2cc(C(=O)N[C@H](C(=O)N3CCC[C@H]3C(=O)O)C(C)C)n(C)c2c1 | 8.74% |  | 29.1 µM [rising, single point] |
| COc1ccc([C@H]2C=C(C(=O)O)O[C@@H](OCc3ccc(CO)cc3)C2)cc1 |  |  | 16.4 µM [rising, single point] |
| Cc1ccc(C(=O)/C=C/c2c(C)nn(-c3ccccc3)c2Cl)cc1 |  | 6.51 µM [rising, single point] | 4.11 µM [rising, partial curve, poor fit] |
| COc1ccc(C)cc1NCc1cc(=O)oc2cc(-c3ccccc3)c(O)cc12 | -19.4% |  | 29.1 µM [falling, single point] |
| O=C(O)CSc1nnc(Nc2ccccc2)n1-c1ccccc1 | 59.5% | 29.1 µM [rising, single point] | 29.1 µM [rising, single point] |
| O=C(C1CCN(CC2CC=CCC2)CC1)N(CCc1ccccc1)Cc1ccccc1 (stereo unspecified) | -6.96% |  | 29.1 µM [rising, single point] |
| CC(C)CC(CCc1ccccc1)OS(N)(=O)=O (stereo unspecified) | -7.12% |  | 13 µM [rising, partial curve, poor fit] |
| O=C(NCc1ccncc1)c1cncc(Br)c1 | 156% |  |  |
| CCOC(=O)c1c(CSC(=N)N)n(-c2ccc(C)cc2)c2cc(Br)c(OC(C)=O)cc12 | -22.7% |  | 29.1 µM [falling, single point] |
| O=C(/C=C/c1ccc(Cl)cc1)NC(=S)Nc1ccccc1C(=O)O | 23.2% |  | 4.11 µM [rising, single point] |
| CN1CCc2nc(SCC(=O)Nc3ccc(OC(F)(F)F)cc3)c(C#N)c(-c3cccs3)c2C1 | 0.241% |  |  |
| Nc1ccc(Nc2ccccc2)c(S(=O)(=O)O)c1 | 6.86% |  | 0.184 µM [rising, full curve, poor fit] |
